PubChem BioAssay AID1508597, Cure First, 2020

Screen: 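Genes whose silencing sensitises or protects ovarian cancer cells against rucaparib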 (primary screen)
System: human ovarian carcinoma lines grown from tumours: OCI-P5x (papillary serous) and OCI-C5x (clear cell)
Reagents: siRNA pool against human genes, 1.25 pmol siRNA per well
Time to read-out: 72 h or 96 h, depending on the cell culture
Conditions: rucaparib 20 µM (about IC30) or vehicle, present until read-out
Rucaparib or vehicle: Rucaparib
Cell line: OCI-C5x (clear cell)
Measurement: 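ATP luminescence measured at 72 or 96 h according to the culture, then normalised and expressed as percent viability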
Direction: viability, normalised: higher = more viable cells remaining
Hit rule: 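a well counts as a hit if its normalised viability is under 80 percent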
Calls: active = viability under 80%; inactive = viability 80% or more
This is a random part of the about 2,100 reagents, under one of the conditions tested. 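Calls flag viability under 80% in either arm, not effects specific to rucaparib; the reference for percent is not stated.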 Some reagents were tested in more than one well and are listed for each. The record does not give: the 100% reference.

The first 4 records, ahead of the listing:
| gene symbol | technical replicate | viability, normalised (%) | outcome |
| --- | --- | --- | --- |
| SMPD2 | 1 | 83.7 | inactive |
| SMPD2 | 2 | 52.4 | active |
| SMPD2 | 3 | 54 | active |
| GLRA2 | 1 | 41.6 | active |

The list itself, repeating the preview:
| gene symbol | technical replicate | viability, normalised (%) | outcome |
| --- | --- | --- | --- |
| SMPD2 | 1 | 83.7 | inactive |
| SMPD2 | 2 | 52.4 | active |
| SMPD2 | 3 | 54 | active |
| GLRA2 | 1 | 41.6 | active |
| GLRA2 | 2 | 36.5 | active |
| GLRA2 | 3 | 38 | active |
| USP28 | 1 | 55.8 | active |
| USP28 | 2 | 68.8 | active |
| USP28 | 3 | 56.3 | active |
| ATF7IP2 | 1 | 45 | active |
| ATF7IP2 | 2 | 53.3 | active |
| ATF7IP2 | 3 | 49.5 | active |
| JAK1 | 1 | 38.6 | active |
| JAK1 | 2 | 49.7 | active |
| JAK1 | 3 | 38.9 | active |
| MEAF6 | 1 | 42.3 | active |
| MEAF6 | 2 | 35 | active |
| MEAF6 | 3 | 50.4 | active |
| CDK13 | 1 | 42.3 | active |
| CDK13 | 2 | 48.1 | active |
| CDK13 | 3 | 52.3 | active |
| SHH | 1 | 45.6 | active |
| SHH | 2 | 36.7 | active |
| SHH | 3 | 36.1 | active |
| TSPYL5 | 1 | 84.1 | inactive |
| TSPYL5 | 2 | 80.2 | inactive |
| TSPYL5 | 3 | 64.4 | active |
| SP1 | 1 | 65.2 | active |
| SP1 | 2 | 33.7 | active |
| SP1 | 3 | 58.2 | active |
| ACVR1C | 1 | 74.2 | active |
| ACVR1C | 2 | 75.4 | active |
| ACVR1C | 3 | 72 | active |
| TTK | 1 | 49 | active |
| TTK | 2 | 65.3 | active |
| TTK | 3 | 41.8 | active |
| SPO11 | 1 | 45.3 | active |
| SPO11 | 2 | 69.1 | active |
| SPO11 | 3 | 58.6 | active |
| EPC2 | 1 | 76.6 | active |
| EPC2 | 2 | 56.1 | active |
| EPC2 | 3 | 60.5 | active |
| DPH2 | 1 | 49.4 | active |
| DPH2 | 2 | 41.6 | active |
| DPH2 | 3 | 36.4 | active |
| ATXN7L3 | 1 | 48.3 | active |
| ATXN7L3 | 2 | 44.2 | active |
| ATXN7L3 | 3 | 38.8 | active |
| EHMT2 | 1 | 67.2 | active |
| EHMT2 | 2 | 41.5 | active |
| EHMT2 | 3 | 70.9 | active |
| BCORL1 | 1 | 63 | active |
| BCORL1 | 2 | 33.9 | active |
| BCORL1 | 3 | 42.2 | active |
| NME7 | 1 | 55.4 | active |
| NME7 | 1 | 72 | active |
| NME7 | 2 | 50.1 | active |
| NME7 | 2 | 49.1 | active |
| NME7 | 3 | 39.6 | active |
| NME7 | 3 | 48.5 | active |
| KDM5D | 1 | 57.2 | active |
| KDM5D | 2 | 39.4 | active |
| KDM5D | 3 | 35.3 | active |
| HMG20B | 1 | 54.9 | active |
| HMG20B | 2 | 42.3 | active |
| HMG20B | 3 | 48.7 | active |
| TYMS | 1 | 63.9 | active |
| TYMS | 2 | 65.1 | active |
| TYMS | 3 | 68.9 | active |
| PGK2 | 1 | 49.2 | active |
| PGK2 | 2 | 64.5 | active |
| PGK2 | 3 | 58.2 | active |
| PRKD1 | 1 | 78.1 | active |
| PRKD1 | 2 | 60.5 | active |
| PRKD1 | 3 | 47.9 | active |
